Test results as given in article PMC13321232.
These are yes or no findings as the source states them, for the method shown. In cells and extracts the contact can be indirect. Sequences can lack the tags named with a protein.

Target: T1, PXY-CFP (Arabidopsis thaliana) (UniProt Q9FII5)
T1 sequence: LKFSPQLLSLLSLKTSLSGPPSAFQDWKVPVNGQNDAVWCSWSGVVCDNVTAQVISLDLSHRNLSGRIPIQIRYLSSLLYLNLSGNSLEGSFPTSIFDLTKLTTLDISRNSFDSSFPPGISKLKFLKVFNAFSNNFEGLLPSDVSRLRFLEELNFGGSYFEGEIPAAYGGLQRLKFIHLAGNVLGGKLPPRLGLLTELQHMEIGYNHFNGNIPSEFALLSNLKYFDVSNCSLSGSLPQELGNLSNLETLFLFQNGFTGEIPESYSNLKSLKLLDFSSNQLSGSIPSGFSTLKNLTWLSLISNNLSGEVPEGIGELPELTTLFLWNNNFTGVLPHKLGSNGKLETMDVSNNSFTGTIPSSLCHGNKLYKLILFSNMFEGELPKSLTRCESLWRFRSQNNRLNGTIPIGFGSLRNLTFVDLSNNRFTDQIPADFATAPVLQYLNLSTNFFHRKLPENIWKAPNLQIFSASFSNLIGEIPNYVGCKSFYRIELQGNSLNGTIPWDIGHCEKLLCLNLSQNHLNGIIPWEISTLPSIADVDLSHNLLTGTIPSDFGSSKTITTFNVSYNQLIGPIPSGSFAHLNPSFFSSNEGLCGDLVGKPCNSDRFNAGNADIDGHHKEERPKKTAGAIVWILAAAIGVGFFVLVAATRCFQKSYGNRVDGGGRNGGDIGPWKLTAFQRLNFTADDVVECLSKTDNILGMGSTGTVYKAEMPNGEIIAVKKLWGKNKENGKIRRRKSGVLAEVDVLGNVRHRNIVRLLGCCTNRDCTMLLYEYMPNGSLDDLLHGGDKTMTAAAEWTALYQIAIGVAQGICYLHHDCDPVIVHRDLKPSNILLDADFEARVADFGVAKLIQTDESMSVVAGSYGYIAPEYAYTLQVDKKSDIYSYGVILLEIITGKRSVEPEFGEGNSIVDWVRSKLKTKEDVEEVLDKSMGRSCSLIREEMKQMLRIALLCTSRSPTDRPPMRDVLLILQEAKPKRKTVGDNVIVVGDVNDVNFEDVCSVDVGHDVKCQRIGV
Assay: FRET or BRET; FRET between CFP and YFP fusions coinfiltrated into Nicotiana leaves; epidermal cells, confocal spectral (Lambda mode) scans at the plasma membrane, 458 nm excitation

binding: no binding
B1: ERL1-YFP (receptor, UniProt C0LGW6 26-966)
chain: MNNEGKALMAIKGSFSNLVNMLLDWDDVHNSDLCSWRGVFCDNVSYSVVSLNLSSLNLGGEISPAIGDLRNLQSIDLQGNKLAGQIPDEIGNCASLVYLDLSENLLYGDIPFSISKLKQLETLNLKNNQLTGPVPATLTQIPNLKRLDLAGNHLTGEISRLLYWNEVLQYLGLRGNMLTGTLSSDMCQLTGLWYFDVRGNNLTGTIPESIGNCTSFQILDISYNQITGEIPYNIGFLQVATLSLQGNRLTGRIPEVIGLMQALAVLDLSDNELVGPIPPILGNLSFTGKLYLHGNMLTGPIPSELGNMSRLSYLQLNDNKLVGTIPPELGKLEQLFELNLANNRLVGPIPSNISSCAALNQFNVHGNLLSGSIPLAFRNLGSLTYLNLSSNNFKGKIPVELGHIINLDKLDLSGNNFSGSIPLTLGDLEHLLILNLSRNHLSGQLPAEFGNLRSIQMIDVSFNLLSGVIPTELGQLQNLNSLILNNNKLHGKIPDQLTNCFTLVNLNVSFNNLSGIVPPMKNFSRFAPASFVGNPYLCGNWVGSICGPLPKSRVFSRGALICIVLGVITLLCMIFLAVYKSMQQKKILQGSSKQAEGLTKLVILHMDMAIHTFDDIMRVTENLNEKFIIGYGASSTVYKCALKSSRPIAIKRLYNQYPHNLREFETELETIGSIRHRNIVSLHGYALSPTGNLLFYDYMENGSLWDLLHGSLKKVKLDWETRLKIAVGAAQGLAYLHHDCTPRIIHRDIKSSNILLDENFEAHLSDFGIAKSIPASKTHASTYVLGTIGYIDPEYARTSRINEKSDIYSFGIVLLELLTGKKAVDNEANLHQLILSKADDNTVMEAVDPEVTVTCMDLGHIRKTFQLALLCTKRNPLERPTMLEVSRVLLSLVPSLQVAKKLPSLDHSTKKLQQENEVRNPDAEASQWFVQFREVISKSSI
